Measurements reported in PubChem BioAssay AID602196 (INSERM, 2012)
Shown is an unselected part of about 23,000 reagents. 455 of them (2%) count as active. 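Active includes both protection and sensitisation; some change values fall well beyond the stated -50 to +50 range.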 Not all columns of the deposit are shown. Not given: the amount of reagent.

Screen: 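Modifiers of cisplatin sensitivity in A549 cells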
Cells: human A549 lung cancer cells
Reagent: siRNA pair against human genes
Timing: 48 h transfection before cisplatin; time from cisplatin to read-out not stated
Treatment: cisplatin at a dose killing half of control-siRNA cells; exact dose and duration not given
Detection: 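Shift in cisplatin death relative to control siRNA, from -50 (all cells die) to +50 (no cells die); siRNAs harmful on their own scored 0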
Direction: two-siRNA summed score (-2 to +2): higher = both siRNAs protect from cisplatin killing; -2 means both sensitise
Call rule: 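siRNAs harmful alone (LDH or WST-1) get 0; others get +1 for less and -1 for more cisplatin killing; genes are active when the two siRNAs give the same sign, summing to ±2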
Meaning of the calls: active = both siRNAs shift cisplatin killing the same way; inactive = no consistent shift, or siRNA harmful alone

OR2V2 (olfactory receptor family 2 subfamily V member 2)
- two-siRNA summed score (-2 to +2): 0
- outcome: inactive

TNC (tenascin C)
- two-siRNA summed score (-2 to +2): 1
- outcome: inactive

ARHGAP12 (Rho GTPase activating protein 12)
- two-siRNA summed score (-2 to +2): 0
- outcome: inactive

ATG14 (autophagy related 14)
- two-siRNA summed score (-2 to +2): 0
- outcome: inactive

OSBP (oxysterol binding protein)
- two-siRNA summed score (-2 to +2): 0
- outcome: inactive

LOC440226
- two-siRNA summed score (-2 to +2): 0
- outcome: inactive

DNPEP (aspartyl aminopeptidase)
- two-siRNA summed score (-2 to +2): 0
- outcome: inactive

TMEM243 (transmembrane protein 243)
- two-siRNA summed score (-2 to +2): 0
- outcome: inactive

OR51B6 (olfactory receptor family 51 subfamily B member 6)
- two-siRNA summed score (-2 to +2): 0
- outcome: inactive

PFN2 (profilin 2)
- two-siRNA summed score (-2 to +2): 0
- outcome: inactive

LOC200019
- two-siRNA summed score (-2 to +2): 0
- outcome: inactive

PSME3IP1 (proteasome activator subunit 3 interacting protein 1)
- two-siRNA summed score (-2 to +2): 0
- outcome: inactive

Continued, starting with the last 3 of the part before.
PFN2 (profilin 2)
- two-siRNA summed score (-2 to +2): 0
- outcome: inactive

LOC200019
- two-siRNA summed score (-2 to +2): 0
- outcome: inactive

PSME3IP1 (proteasome activator subunit 3 interacting protein 1)
- two-siRNA summed score (-2 to +2): 0
- outcome: inactive

IVL (involucrin)
- two-siRNA summed score (-2 to +2): 1
- outcome: inactive

CHD7 (chromodomain helicase DNA binding protein 7)
- two-siRNA summed score (-2 to +2): 0
- outcome: inactive

KIF3C (kinesin family member 3C)
- two-siRNA summed score (-2 to +2): 0
- outcome: inactive

SMO (smoothened, frizzled class receptor)
- two-siRNA summed score (-2 to +2): -1
- outcome: inactive

LRRC8C (leucine rich repeat containing 8 VRAC subunit C)
- two-siRNA summed score (-2 to +2): 0
- outcome: inactive

VAV1 (vav guanine nucleotide exchange factor 1)
- two-siRNA summed score (-2 to +2): 1
- outcome: inactive

SRPK2 (SRSF protein kinase 2)
- two-siRNA summed score (-2 to +2): -1
- outcome: inactive

HK2 (hexokinase 2)
- two-siRNA summed score (-2 to +2): 0
- outcome: inactive

GPC6 (glypican 6)
- two-siRNA summed score (-2 to +2): 0
- outcome: inactive
